Results deposited as PubChem BioAssay AID504774 (Drosophila RNAi Screening Center, 2011).
In all, the deposit lists about 23,000 reagents; this is a random part of those with a known target gene and a result. 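Values are quantile-normalised luminescence on an arbitrary scale; higher means more cells surviving MMS.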 Names joined by + are all predicted targets of the reagent. Not all columns of the deposit are shown. Reagent sequences are not shown.

- Screen: 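Genes required for cells to withstand methyl methanesulphonate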 (primary screen)
- System: Drosophila Kc167 cells
- Reagents: long dsRNA against Drosophila genes, about 0.25 µg dsRNA per well
- Duration: about 6 days: 3 days knock-down, then 3 days with or without MMS
- Challenge: methyl methanesulphonate 0.004% (w/v) for 3 days after knock-down
- Measurement: 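ATP-dependent luminescence as a measure of live cells in MMS-exposed wells, quantile normalised within each plate, with replicate values also given as a mean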
- Direction: mean viability with MMS and viability with MMS: higher = more surviving cells after MMS

janB (janus B) [DRSC16973] showed mean viability with MMS 3.49e6; viability with MMS, replicate 1 = 3.78e6. Depletion of CG13766 [DRSC02271] resulted in: mean viability with MMS 3.65e6; viability with MMS, replicate 1 = 4.07e6. Against Cyp6d4 (Cytochrome P450 6d4) [DRSC16633], the values are mean viability with MMS 3.56e6; viability with MMS, replicate 1 = 4.00e6. For His1:CG33816 + His1:CG33828 + His1:CG33819 + 21 more [DRSC21266], the values are mean viability with MMS 3.33e6; viability with MMS, replicate 1 = 3.76e6. Against CG33463 [DRSC22915], the values are mean viability with MMS 3.55e6; viability with MMS, replicate 1 = 4.01e6. Spn28B (Serpin 28B) [DRSC02982] gave mean viability with MMS 3.58e6; viability with MMS, replicate 1 = 4.08e6.

After knock-down of CG8892 [DRSC03121], the screen gave mean viability with MMS 3.62e6; viability with MMS, replicate 1 = 4.15e6. With knock-down of Tspo (Translocator protein) [DRSC00533], the record shows mean viability with MMS 3.61e6; viability with MMS, replicate 1 = 4.18e6. CG9331 [DRSC03206] gave mean viability with MMS 3.65e6; viability with MMS, replicate 1 = 4.30e6.

Sorted by “viability with MMS, replicate 1” (high to low): some entries from above
CG8892 [DRSC03121]: mean viability with MMS = 3.62e6; viability with MMS, replicate 1 = 4.15e6
Spn28B (Serpin 28B) [DRSC02982]: mean viability with MMS = 3.58e6; viability with MMS, replicate 1 = 4.08e6

Further entries:
Silencing of dare + CG30033 [DRSC22908] gave: mean viability with MMS 3.53e6; viability with MMS, replicate 1 = 4.00e6. Silencing of Ir67a (Ionotropic receptor 67a) [DRSC09897] came out at: mean viability with MMS 3.69e6; viability with MMS, replicate 1 = 4.22e6. VhaM9.7-c (Vacuolar H[+] ATPase M9.7 subunit c) [DRSC08204] gave mean viability with MMS 3.57e6; viability with MMS, replicate 1 = 4.01e6. For CG17249 [DRSC08517] the deposit lists mean viability with MMS 3.56e6; viability with MMS, replicate 1 = 4.00e6. Knock-down of CG15425 [DRSC00440] came out at: mean viability with MMS 3.60e6; viability with MMS, replicate 1 = 4.01e6.
